Values from PubChem BioAssay AID504791 (Drosophila RNAi Screening Center, 2011).
Aim: 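Factors in Argonaute-based small RNA production and activity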 (primary screen). Cell system: Drosophila S2-derived reporter cells. Reagent: long dsRNA against Drosophila genes, about 150-250 ng dsRNA per well (siRNA assay); about 80-120 ng (miRNA assay). Timing: about 5 days (siRNA assay); about 4 days (miRNA assay). Conditions: copper sulfate induction of reporters: 25 µM (siRNA assay); 200 mM stated (miRNA assay), 1-2 days before reading. Read-out: 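Per-well ratio of Renilla over firefly light, expressed relative to that plate's average ratio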. Hit rule: 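a well was a first-pass pick when its plate-scaled ratio rose above 1.5 (siRNA assay) or 1.6 (miRNA assay), or dropped below 0.6; a gene counted only if two separate dsRNAs agreed on retest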.
The deposit covers about 23,000 reagents; below is a random part of those with a known target gene and a result. Of all reagents, 199 (0.86%) are marked active. 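Plate-scaled ratios behind the calls are not deposited; printed light signals are raw; many rows marked increased or decreased are still called inactive.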 Unmarked entries are inactive. A plus sign joins genes that one reagent is predicted to hit. The record does not give: the direction of the score.

What is on record for T48 (Transcript 48) [DRSC16878]?
stable assay Renilla, run 1 (luminescence): 6158; stable assay firefly, run 1 (luminescence): 3.99e5

What is on record for msd5 (mitotic spindle density 5) [DRSC08560]?
stable assay Renilla, run 1 (luminescence): 6338; stable assay firefly, run 1 (luminescence): 3.18e5

What is on record for Phm (Peptidylglycine-alpha-hydroxylating monooxygenase) [DRSC04639]?
stable assay Renilla, run 1 (luminescence): 7465; stable assay firefly, run 1 (luminescence): 1.07e6

For lectin-46Ca [DRSC06612], what was measured?
stable assay Renilla, run 1 (luminescence): 4576; stable assay firefly, run 1 (luminescence): 4.04e5

How did the screen score tw (twisted) [DRSC18537]?
stable assay Renilla, run 1 (luminescence): 9266; stable assay firefly, run 1 (luminescence): 6.09e5

With beat-IIa (beaten path IIa) [DRSC14813], what does the deposit list?
stable assay Renilla, run 1 (luminescence): 7010; stable assay firefly, run 1 (luminescence): 3.08e5

How did the screen score beat-IIa (beaten path IIa) [DRSC14814]?
stable assay Renilla, run 1 (luminescence): 7496; stable assay firefly, run 1 (luminescence): 3.91e5

What is on record for CG5096 [DRSC02813]?
stable assay Renilla, run 1 (luminescence): 7814; stable assay firefly, run 1 (luminescence): 3.05e5

Which result is listed for MESK2 + CG10494 [DRSC04259]?
stable assay Renilla, run 1 (luminescence): 7942; stable assay firefly, run 1 (luminescence): 3.92e5

With Fer2 (48 related 2) [DRSC15925], what does the deposit list?
stable assay Renilla, run 1 (luminescence): 6652; stable assay firefly, run 1 (luminescence): 5.01e5

Part of the list above, reformatted:
T48 (Transcript 48) [DRSC16878]
- stable assay Renilla, run 1 (luminescence): 6158
- stable assay firefly, run 1 (luminescence): 3.99e5

msd5 (mitotic spindle density 5) [DRSC08560]
- stable assay Renilla, run 1 (luminescence): 6338
- stable assay firefly, run 1 (luminescence): 3.18e5

Phm (Peptidylglycine-alpha-hydroxylating monooxygenase) [DRSC04639]
- stable assay Renilla, run 1 (luminescence): 7465
- stable assay firefly, run 1 (luminescence): 1.07e6

Next results:
How did the screen score prel (preli-like) [DRSC07271]?
stable assay Renilla, run 1 (luminescence): 7454; stable assay firefly, run 1 (luminescence): 4.05e5

With CG13318 [DRSC14581], what was measured?
stable assay Renilla, run 1 (luminescence): 6974; stable assay firefly, run 1 (luminescence): 4.31e5

Which result is listed for Oga (O-GlcNAcase) [DRSC15901]?
stable assay Renilla, run 1 (luminescence): 8913; stable assay firefly, run 1 (luminescence): 3.43e5

With CG32579 [DRSC19872], what was measured?
stable assay Renilla, run 1 (luminescence): 4735; stable assay firefly, run 1 (luminescence): 3.78e5

What did the screen give for Edem2 (ER degradation enhancer, mannosidase alpha-like 2) [DRSC02877]?
stable assay Renilla, run 1 (luminescence): 7126; stable assay firefly, run 1 (luminescence): 3.79e5

With CG32750 [DRSC18848], how do the results read?
stable assay Renilla, run 1 (luminescence): 6111; stable assay firefly, run 1 (luminescence): 3.02e5

What is on record for CG14416 [DRSC18639]?
stable assay Renilla, run 1 (luminescence): 7019; stable assay firefly, run 1 (luminescence): 4.08e5

How did the screen score VhaM9.7-d (Vacuolar H[+] ATPase M9.7 subunit d) [DRSC15028]?
stable assay Renilla, run 1 (luminescence): 7390; stable assay firefly, run 1 (luminescence): 4.33e5

For CG8160 [DRSC07086], what does the deposit list?
stable assay Renilla, run 1 (luminescence): 4344; stable assay firefly, run 1 (luminescence): 3.37e5

With CG8160 [DRSC21434], what was measured?
stable assay Renilla, run 1 (luminescence): 8926; stable assay firefly, run 1 (luminescence): 5.13e5
